For at least one entry, the source does not settle the construct or the ends of the probe. Tags and fusion partners may be left off the protein sequences shown.
Target: T1, SACE_0303 (TetR-family regulator) (Saccharopolyspora erythraea) (UniProt A4F6H8)
T1 sequence (looked up, limits assumed): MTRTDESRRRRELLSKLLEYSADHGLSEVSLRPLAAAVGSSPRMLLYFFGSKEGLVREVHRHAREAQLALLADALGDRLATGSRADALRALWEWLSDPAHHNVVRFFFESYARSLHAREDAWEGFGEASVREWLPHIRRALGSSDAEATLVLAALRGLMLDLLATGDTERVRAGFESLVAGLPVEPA
Experiment: EMSA
Details: EMSA: 10 mM Tris-HCl pH 7.5, 60 mM KCl, 10 mM DTT, 5 mM MgCl2, 10% glycerol, 150 ng probe, 20 uL, 30 C 20 min; footprint at 20 C; recombinant protein; protein details: His6 (pET28a, NdeI/HindIII); probe letters rebuilt from the primers and the genome

Sequence | binding result
CCACACCCCGCTGGCACCAACTCCTCGATCACCACGACCATGCACCAACCACCACTGTCATACACGCCGATCATTCTGAAACGAGCGGTGAAGCACACGAACCGAGAAGTGCTTGTCGAGGGCCCAAAGCTTCCGATGTGTGGACGCCGGCGCTCCCGATTCGGCCAGCCGCAGGCCCCCGCCCGGCATGACGTCGGTCCCTGGCCACTGGCGTGCGGCGCGGGCAGGATAGGAACACCACCTCAGCTCAGGGGACGTTGATGAGTCGATGCGCCCGCAGCTGCCACCATGTCCCGAACGCCGCTCTCCGTAGGTACCGGGCCGGCATCGCGCGCGACGAGGTGACCTG (double strand) [P2467] | binds
CCGGCGTCCACTGAGCAACGCGCGTCCGACGCCCGGCAAGCACCGCGACTGGATCAGCTCCGCAGCGCCAGTCGGAAACCCCGCGCCCTTCCCGGCCCAGGTGTCCCCCCCGCGGGGCCTACGCCTGAAGCGGCCGTTTCCACGTCGCGGTGTCCTACATCCACAGTCGGGACGACGGGGTTTAACACTTCTATTGATAAATCTAGCTCGCCGTATGAGTATGGTGCGCGACGTTAGCGAGGTCGGCGTCCCCCGACGACGGCTCCCCGGTTACCGGTGGCCACCTCTACCCCGGTTCCGGCGGCGGCCTGGTGGCGGGCGCGCGTGACTCGCATCAGCACCTCAACGTGGAGGTTTGGC (double strand) [P5222] | binds
